From patent US12404308
These are yes or no findings as the source states them, for the method shown. Some binding calls cover weakened binding; strength is not graded here.

Key:
[1] = biological target: Cry3Aa (Bacillus thuringiensis) (UniProt P0A379); assay: lipase activity of crystals and of the supernatant after incubation with NaCl
[2] = biological target: Cry3Aa (Bacillus thuringiensis) (UniProt P0A379); assay: co-expression in Bt; SDS-PAGE of purified crystals
[3] = biological target: negatively-charged Cry3Aa mutant (negCry3Aa) (Bacillus thuringiensis) (UniProt P0A379); assay: co-expression in Bt; SDS-PAGE of purified crystals
[4] = biological target: Cry3Aa (Bacillus thuringiensis) (UniProt P0A379); assay: co-expression in Bt; lipase activity of purified crystals; release by NaCl

Measured: binding

lipase A from Bacillus subtilis fused to a poly-arginine tail with 9 consecutive arginine residues (lipAR9) (from UniProt P37957 32-212) (enzyme)
binds: all assays above
